The list shows a part of the results.
Legend:
Test in all cases: log2 fold change, soluble protein after heating vs DMSO (PISA); higher = thermal stabilisation; K562 cells, 10 uM, 30 min; active = over 0.2 and 3.5 SD of the protein, either way, in both replicates (recomputed)
[1] = compound: NC(=O)Nc1cc(-c2cccc(F)c2)sc1C(=O)N[C@H]1CCCNC1
Method in brief: (§1)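 K562 cells at 2×10^6 cells/mL were treated with 10 μM compound for 30 min. Aliquots were heated for 3 min across 48°C-58°C, pooled, and extracted in PBS with 0.5% NP-40 at 4°C; soluble protein was the supernatant after 21,000xg for 90 min. Soluble protein was quantified by TMTpro 16plex LC-MS/MS with channel sums equalised, and reported as log2 fold change in thermal stability against DMSO controls, with values from duplicates.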

By UniProt entry, the sequences of proteins in these tests, tags left out. Where a name states a change or a piece, a line headed by the entry shows the natural chain unless it says otherwise.
UniProt Q9H0Z9: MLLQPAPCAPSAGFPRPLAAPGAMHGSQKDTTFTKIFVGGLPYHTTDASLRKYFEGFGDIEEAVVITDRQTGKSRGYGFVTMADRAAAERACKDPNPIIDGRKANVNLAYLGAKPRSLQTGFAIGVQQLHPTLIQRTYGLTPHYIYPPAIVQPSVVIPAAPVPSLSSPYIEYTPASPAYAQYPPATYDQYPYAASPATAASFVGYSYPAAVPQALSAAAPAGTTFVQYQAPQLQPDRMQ
UniProt Q9H920: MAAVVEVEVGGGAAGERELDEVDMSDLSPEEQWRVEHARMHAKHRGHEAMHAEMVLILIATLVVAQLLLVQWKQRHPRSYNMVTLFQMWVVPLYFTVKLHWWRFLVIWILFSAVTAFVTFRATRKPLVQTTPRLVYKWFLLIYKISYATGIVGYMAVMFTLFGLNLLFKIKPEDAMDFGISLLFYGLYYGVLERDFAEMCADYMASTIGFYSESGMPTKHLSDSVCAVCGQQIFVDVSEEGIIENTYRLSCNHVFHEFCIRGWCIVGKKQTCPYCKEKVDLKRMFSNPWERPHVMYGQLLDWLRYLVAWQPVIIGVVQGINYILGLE
UniProt Q96PM5: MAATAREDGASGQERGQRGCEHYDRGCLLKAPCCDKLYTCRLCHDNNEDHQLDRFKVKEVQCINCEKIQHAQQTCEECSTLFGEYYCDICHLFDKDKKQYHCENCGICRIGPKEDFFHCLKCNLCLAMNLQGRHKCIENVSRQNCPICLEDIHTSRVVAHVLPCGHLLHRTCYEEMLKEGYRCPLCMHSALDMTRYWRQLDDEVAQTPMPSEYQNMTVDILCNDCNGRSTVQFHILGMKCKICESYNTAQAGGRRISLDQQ
UniProt P40937, whole entry, looked up: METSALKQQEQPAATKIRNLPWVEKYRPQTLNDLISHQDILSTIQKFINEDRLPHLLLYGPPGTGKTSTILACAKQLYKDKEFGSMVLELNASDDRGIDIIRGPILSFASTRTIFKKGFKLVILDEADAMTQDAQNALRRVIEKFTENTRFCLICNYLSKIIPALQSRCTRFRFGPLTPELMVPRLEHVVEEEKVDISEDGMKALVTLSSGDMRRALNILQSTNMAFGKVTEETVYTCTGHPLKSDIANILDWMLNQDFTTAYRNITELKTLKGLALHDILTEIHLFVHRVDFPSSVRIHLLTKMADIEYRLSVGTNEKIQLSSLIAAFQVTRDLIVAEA
UniProt Q9H871: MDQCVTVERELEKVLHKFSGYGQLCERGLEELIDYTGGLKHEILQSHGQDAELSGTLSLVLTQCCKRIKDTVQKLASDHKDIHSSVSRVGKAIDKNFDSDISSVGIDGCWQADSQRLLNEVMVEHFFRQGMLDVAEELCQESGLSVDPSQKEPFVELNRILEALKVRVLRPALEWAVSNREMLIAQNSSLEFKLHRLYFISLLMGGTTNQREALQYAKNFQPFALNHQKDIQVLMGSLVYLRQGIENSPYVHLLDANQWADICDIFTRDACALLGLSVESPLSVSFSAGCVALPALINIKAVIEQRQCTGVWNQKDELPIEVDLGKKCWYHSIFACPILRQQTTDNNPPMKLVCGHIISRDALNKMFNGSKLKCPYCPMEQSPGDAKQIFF
UniProt Q9Y3B8: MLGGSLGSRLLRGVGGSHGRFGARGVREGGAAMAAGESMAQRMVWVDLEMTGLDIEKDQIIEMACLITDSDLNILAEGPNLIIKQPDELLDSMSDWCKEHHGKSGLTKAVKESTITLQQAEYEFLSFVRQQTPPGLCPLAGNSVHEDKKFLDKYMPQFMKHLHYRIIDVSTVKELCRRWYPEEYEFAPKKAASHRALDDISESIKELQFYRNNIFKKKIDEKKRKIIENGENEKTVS
UniProt Q96AA3: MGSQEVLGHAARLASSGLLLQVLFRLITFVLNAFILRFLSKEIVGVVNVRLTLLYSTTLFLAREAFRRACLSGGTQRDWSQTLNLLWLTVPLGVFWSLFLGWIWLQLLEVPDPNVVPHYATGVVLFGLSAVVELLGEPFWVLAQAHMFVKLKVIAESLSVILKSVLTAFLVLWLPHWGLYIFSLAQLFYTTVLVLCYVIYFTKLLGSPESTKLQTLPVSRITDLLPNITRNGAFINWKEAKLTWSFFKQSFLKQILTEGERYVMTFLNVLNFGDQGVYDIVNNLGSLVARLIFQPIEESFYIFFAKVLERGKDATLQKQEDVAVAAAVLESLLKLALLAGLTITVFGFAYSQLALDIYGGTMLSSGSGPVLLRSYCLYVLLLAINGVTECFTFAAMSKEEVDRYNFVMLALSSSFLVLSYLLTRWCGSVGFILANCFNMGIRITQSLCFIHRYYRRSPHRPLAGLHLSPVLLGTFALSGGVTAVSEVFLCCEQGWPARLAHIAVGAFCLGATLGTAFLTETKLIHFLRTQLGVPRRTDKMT
UniProt P78509: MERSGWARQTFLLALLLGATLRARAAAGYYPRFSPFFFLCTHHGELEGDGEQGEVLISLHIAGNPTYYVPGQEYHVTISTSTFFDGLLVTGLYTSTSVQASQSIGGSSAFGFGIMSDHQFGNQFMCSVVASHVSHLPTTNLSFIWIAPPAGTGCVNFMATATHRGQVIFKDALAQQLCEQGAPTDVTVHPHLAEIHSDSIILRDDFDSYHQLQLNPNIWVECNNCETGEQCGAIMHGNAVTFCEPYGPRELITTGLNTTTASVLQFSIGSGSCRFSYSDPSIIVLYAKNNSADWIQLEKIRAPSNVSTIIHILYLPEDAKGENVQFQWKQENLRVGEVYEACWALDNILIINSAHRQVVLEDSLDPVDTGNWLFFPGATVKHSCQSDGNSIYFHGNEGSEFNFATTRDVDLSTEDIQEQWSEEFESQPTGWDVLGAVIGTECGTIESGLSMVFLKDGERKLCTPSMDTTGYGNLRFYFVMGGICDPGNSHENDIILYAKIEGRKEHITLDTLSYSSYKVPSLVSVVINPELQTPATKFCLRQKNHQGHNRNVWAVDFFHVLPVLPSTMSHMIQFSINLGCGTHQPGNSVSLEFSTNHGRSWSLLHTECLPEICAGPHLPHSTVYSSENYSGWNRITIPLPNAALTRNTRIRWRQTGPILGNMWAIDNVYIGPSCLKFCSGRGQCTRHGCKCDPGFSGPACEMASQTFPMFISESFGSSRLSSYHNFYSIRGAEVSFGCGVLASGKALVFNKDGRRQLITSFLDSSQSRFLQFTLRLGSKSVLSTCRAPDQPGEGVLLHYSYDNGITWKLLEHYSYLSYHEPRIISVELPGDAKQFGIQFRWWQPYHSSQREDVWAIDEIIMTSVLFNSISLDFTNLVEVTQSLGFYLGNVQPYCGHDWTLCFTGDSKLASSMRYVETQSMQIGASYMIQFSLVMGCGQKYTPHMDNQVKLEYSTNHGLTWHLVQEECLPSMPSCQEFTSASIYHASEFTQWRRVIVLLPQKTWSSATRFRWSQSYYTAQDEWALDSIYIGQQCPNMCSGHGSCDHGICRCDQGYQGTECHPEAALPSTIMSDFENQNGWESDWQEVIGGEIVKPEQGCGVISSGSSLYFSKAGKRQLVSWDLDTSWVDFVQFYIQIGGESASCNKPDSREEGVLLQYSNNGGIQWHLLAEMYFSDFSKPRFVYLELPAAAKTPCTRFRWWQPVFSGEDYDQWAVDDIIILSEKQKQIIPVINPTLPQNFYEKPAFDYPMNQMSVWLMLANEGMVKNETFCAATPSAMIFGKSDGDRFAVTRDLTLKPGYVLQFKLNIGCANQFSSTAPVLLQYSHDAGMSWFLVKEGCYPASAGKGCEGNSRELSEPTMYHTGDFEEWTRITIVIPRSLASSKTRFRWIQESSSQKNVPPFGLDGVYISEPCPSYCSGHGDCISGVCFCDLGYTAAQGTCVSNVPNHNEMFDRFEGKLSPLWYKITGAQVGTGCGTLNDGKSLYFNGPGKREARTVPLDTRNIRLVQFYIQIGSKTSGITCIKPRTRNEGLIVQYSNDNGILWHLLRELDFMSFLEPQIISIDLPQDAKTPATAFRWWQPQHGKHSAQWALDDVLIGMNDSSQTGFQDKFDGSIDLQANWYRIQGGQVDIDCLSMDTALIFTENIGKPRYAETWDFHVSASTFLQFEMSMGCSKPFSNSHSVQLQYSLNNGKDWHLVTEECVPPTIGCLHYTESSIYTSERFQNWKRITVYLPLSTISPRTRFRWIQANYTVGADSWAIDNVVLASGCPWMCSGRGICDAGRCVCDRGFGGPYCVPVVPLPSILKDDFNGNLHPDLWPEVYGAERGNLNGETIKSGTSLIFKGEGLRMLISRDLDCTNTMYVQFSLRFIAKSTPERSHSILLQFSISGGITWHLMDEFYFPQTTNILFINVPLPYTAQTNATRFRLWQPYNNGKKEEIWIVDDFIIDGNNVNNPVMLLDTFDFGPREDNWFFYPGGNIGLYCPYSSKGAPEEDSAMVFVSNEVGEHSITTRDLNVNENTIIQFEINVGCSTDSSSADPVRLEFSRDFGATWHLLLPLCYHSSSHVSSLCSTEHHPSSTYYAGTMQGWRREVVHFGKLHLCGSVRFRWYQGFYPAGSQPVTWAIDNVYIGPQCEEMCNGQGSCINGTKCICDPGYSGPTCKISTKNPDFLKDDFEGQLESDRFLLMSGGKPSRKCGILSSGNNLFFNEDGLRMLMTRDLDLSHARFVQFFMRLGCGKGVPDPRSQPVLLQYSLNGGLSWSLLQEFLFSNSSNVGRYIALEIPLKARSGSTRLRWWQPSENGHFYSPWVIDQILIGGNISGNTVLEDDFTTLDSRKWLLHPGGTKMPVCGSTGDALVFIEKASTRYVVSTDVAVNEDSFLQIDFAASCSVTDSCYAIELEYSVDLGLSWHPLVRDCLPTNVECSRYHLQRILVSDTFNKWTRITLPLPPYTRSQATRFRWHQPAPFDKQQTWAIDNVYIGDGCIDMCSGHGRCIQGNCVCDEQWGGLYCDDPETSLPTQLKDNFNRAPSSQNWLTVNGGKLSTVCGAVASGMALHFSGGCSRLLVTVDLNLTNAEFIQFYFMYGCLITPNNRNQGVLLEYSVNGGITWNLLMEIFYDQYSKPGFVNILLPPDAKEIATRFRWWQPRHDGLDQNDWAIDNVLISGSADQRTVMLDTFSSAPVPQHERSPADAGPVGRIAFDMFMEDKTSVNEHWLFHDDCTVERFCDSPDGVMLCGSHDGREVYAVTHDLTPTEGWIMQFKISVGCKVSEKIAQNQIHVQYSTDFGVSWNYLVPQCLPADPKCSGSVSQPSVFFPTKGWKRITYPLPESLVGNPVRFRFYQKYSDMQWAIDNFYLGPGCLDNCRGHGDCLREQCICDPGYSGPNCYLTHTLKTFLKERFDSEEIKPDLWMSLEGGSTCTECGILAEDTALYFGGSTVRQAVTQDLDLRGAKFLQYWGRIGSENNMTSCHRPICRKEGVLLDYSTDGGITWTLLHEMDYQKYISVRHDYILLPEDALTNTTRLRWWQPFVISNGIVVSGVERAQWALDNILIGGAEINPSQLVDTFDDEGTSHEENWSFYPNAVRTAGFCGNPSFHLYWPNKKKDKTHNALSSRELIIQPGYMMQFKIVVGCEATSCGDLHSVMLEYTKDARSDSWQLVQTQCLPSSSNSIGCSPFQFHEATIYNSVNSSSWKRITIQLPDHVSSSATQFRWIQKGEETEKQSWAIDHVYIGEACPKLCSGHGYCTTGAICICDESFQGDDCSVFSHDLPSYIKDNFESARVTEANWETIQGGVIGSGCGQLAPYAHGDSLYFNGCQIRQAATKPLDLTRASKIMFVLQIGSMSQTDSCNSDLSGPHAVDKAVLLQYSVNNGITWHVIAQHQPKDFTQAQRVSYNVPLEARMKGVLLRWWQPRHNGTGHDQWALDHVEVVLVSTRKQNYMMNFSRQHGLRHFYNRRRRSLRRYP
UniProt Q02094: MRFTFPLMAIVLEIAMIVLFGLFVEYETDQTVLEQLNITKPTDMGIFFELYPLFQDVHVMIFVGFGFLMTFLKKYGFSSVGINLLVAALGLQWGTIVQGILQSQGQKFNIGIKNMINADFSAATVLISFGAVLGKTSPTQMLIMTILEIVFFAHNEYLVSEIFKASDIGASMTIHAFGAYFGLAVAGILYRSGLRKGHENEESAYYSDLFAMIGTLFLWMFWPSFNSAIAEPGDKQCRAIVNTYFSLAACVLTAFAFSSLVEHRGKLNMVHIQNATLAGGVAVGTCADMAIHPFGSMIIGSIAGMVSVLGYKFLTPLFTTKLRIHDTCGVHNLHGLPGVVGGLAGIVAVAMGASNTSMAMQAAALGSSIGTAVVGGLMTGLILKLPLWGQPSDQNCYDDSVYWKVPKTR
UniProt Q9P0P0: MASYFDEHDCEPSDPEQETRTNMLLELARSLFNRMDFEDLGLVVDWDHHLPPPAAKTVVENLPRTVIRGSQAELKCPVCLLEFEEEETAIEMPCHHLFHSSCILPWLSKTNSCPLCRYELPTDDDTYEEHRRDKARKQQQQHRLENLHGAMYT

[2] = compound: NC(=O)c1cnc(N[C@@H]2CCCC[C@@H]2N)nc1Nc1cccc(-n2nccn2)c1
Method in brief: as §1

[3] = compound: NC1(c2ccc(-c3nc4ccn5c(=O)[nH]nc5c4cc3-c3ccccc3)cc2)CCC1
Method in brief: as §1

[4] = compound: NCC(=O)Nc1ccc(-n2nc(C(F)(F)F)cc2-c2ccc3c(ccc4ccccc43)c2)cc1
Method in brief: as §1

entinostat = compound: Nc1ccccc1NC(=O)c1ccc(CNC(=O)OCc2cccnc2)cc1 [entinostat]
Method in brief: as §1

vorinostat = compound: O=C(CCCCCCC(=O)Nc1ccccc1)NO [vorinostat]
Method in brief: as §1

citarinostat = compound: O=C(CCCCCCNC(=O)c1cnc(N(c2ccccc2)c2ccccc2Cl)nc1)NO [citarinostat]
Method in brief: as §1

silmitasertib = compound: O=C(O)c1ccc2c(c1)nc(Nc1cccc(Cl)c1)c1ccncc12 [silmitasertib]
Method in brief: as §1

[5] = compound: O=C1NC(=O)C(c2cnc3ccccn23)=C1c1cn2c3c(cc(F)cc13)CN(C(=O)N1CCCCC1)CC2
Method in brief: as §1

[6] = compound: c1cc(OCCN2CCCCC2)cc(-c2n[nH]c3ccc(-c4nnc[nH]4)cc23)c1
Method in brief: as §1

entospletinib = compound: c1cn2cc(-c3ccc4cn[nH]c4c3)nc(Nc3ccc(N4CCOCC4)cc3)c2n1 [entospletinib]
Method in brief: as §1

Measured: log2 fold change

RBM38 (UniProt Q9H0Z9)
inactive: [1] 0.02 | [2] -0.13 | [3] -0.021 | [4] -0.108 | entinostat 0.066 | vorinostat -0.061 | citarinostat 0.06 | silmitasertib -0.029 | [5] -0.072 | [6] -0.021 | entospletinib 0.05

RCC1L (UniProt Q96I51)
inactive: [1] 0.037 | [2] -0.021 | [3] -0.063 | [4] 0.002 | entinostat -0.038 | vorinostat -0.035 | citarinostat 0.071 | silmitasertib -0.007 | [5] -0.011 | [6] 0.003 | entospletinib -0.005

RNF121 (UniProt Q9H920)
inactive: [1] 0.022 | [2] -0.124 | [3] 0.256 | [4] -0.047 | entinostat 0.025 | vorinostat -0.022 | citarinostat -0.004 | silmitasertib 0.006 | [5] -0.108 | [6] -0.066 | entospletinib -0.002

RCHY1 (UniProt Q96PM5)
inactive: [1] -0.007 | [2] -0.004 | [3] 0.063 | [4] 0 | entinostat -0.043 | vorinostat -0.168 | citarinostat 0.004 | silmitasertib 0.004 | [5] -0.21 | [6] 0.088 | entospletinib 0.113

RCSD1 (UniProt Q6JBY9)
inactive: [1] -0.03 | [2] -0.086 | [3] 0.048 | [4] -0.028 | entinostat -0.096 | vorinostat -0.081 | citarinostat -0.005 | silmitasertib -0.022 | [5] -0.077 | [6] 0.104 | entospletinib 0.033

RFC5 (UniProt P40937)
inactive: [1] 0.029 | [2] -0.022 | [3] -0.097 | [4] -0.001 | entinostat 0 | vorinostat 0.059 | citarinostat 0.022 | silmitasertib -0.016 | [5] 0 | [6] -0.02 | entospletinib -0.064

RMND5A (UniProt Q9H871)
inactive: [1] -0.007 | [2] -0.064 | [3] -0.025 | [4] 0.005 | entinostat -0.015 | vorinostat -0.106 | citarinostat 0.001 | silmitasertib 0.063 | [5] 0.023 | [6] -0.045 | entospletinib 0.028

REXO2 (UniProt Q9Y3B8)
inactive: [1] 0.023 | [2] -0.005 | [3] 0.024 | [4] 0.015 | entinostat -0.01 | vorinostat 0.034 | citarinostat 0.021 | silmitasertib -0.018 | [5] -0.056 | [6] -0.007 | entospletinib 0.012

RFT1 (UniProt Q96AA3)
inactive: [1] -0.056 | [2] 0.001 | [3] 0.06 | [4] -0.007 | entinostat -0.004 | vorinostat -0.036 | citarinostat 0.026 | silmitasertib 0.016 | [5] 0.058 | [6] -0.084 | entospletinib -0.004

RENBP (UniProt P51606)
inactive: [1] -0.028 | [2] 0.014 | [3] -0.006 | [4] -0.058 | entinostat -0.016 | vorinostat -0.058 | citarinostat 0.011 | silmitasertib 0.027 | [5] -0.05 | [6] 0.029 | entospletinib -0.04

RING1 (UniProt Q06587)
inactive: [1] 0.001 | [2] -0.247 | [3] -0.125 | [4] -0.037 | entinostat -0.009 | vorinostat 0.067 | citarinostat 0.115 | silmitasertib 0.021 | [5] 0.027 | [6] -0.039 | entospletinib -0.131

2 entries picked at random from those above:
RENBP (UniProt P51606)
inactive: [1] -0.028 | [2] 0.014 | [3] -0.006 | [4] -0.058 | entinostat -0.016 | vorinostat -0.058 | citarinostat 0.011 | silmitasertib 0.027 | [5] -0.05 | [6] 0.029 | entospletinib -0.04

RNF121 (UniProt Q9H920)
inactive: [1] 0.022 | [2] -0.124 | [3] 0.256 | [4] -0.047 | entinostat 0.025 | vorinostat -0.022 | citarinostat -0.004 | silmitasertib 0.006 | [5] -0.108 | [6] -0.066 | entospletinib -0.002

(cont.)

RELN (UniProt P78509)
inactive: [1] 0 | [2] -0.062 | [3] 0.021 | [4] 0.113 | entinostat 0.039 | vorinostat 0.042 | citarinostat 0.022 | silmitasertib 0.07 | [5] 0.039 | [6] -0.093 | entospletinib 0.015

RHAG (UniProt Q02094)
inactive: [1] -0.035 | [2] -0.087 | [3] -0.091 | [4] -0.022 | entinostat 0.072 | vorinostat 0.087 | citarinostat 0.126 | silmitasertib 0.135 | [5] 0.093 | [6] -0.231 | entospletinib 0.003

RNF181 (UniProt Q9P0P0)
inactive: [1] -0.032 | [2] 0.038 | [3] 0.025 | [4] 0.03 | entinostat -0.021 | vorinostat 0.021 | citarinostat 0.014 | silmitasertib -0.005 | [5] -0.044 | [6] 0.01 | entospletinib 0.003
